PubChem BioAssay AID743454 | Peter MacCallum Cancer Centre – 2014

Purpose: 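Knock-downs lowering viability or raising caspase 3/7 activity in vorinostat-treated resistant cells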 (primary screen)
System: human HCT116-VR colon cancer cells, selected for vorinostat resistance
Reagent: siRNA pool against human genes, 40 nM siRNA pool
Timing: vorinostat for 24 h, read-out about 72 h after transfection
Challenge: vorinostat at 2.5 µM final
Read-out: 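Two measures, CellTiter-Fluor viability and luminescent caspase 3/7 activity, each as fold change against same-plate mock wells, mean of duplicates, then screen-wide robust z-score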
Direction: viability robust z-score: higher = more viable cells than screen typical; caspase robust z-score: higher = more caspase 3/7 activity than screen typical
Hit rule: 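Hits are knock-downs in viability class RV1/RV2 or caspase class CA1/CA2, excluding ones that killed cells in the no-drug cell-count arm; hits then retested with single siRNAs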
In all, the deposit lists about 18,000 reagents; below is a part drawn at random. Of all reagents, 450 (2.5%) got an active call. 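Single biological run; no consistent viability z cut-off exists, so the class columns, not z-scores, define the calls.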 A number with no mark means an inactive call.

gene symbol | viability hit class | caspase hit class | viability robust z-score | caspase robust z-score
TUSC3 | no change | no change | -0.59 | -0.14
RHOXF2 | no change | no change | -1.55 | 0.2
CHRNA4 | no change | no change | -0.77 | 1.14
LRRC43 | no change | no change | -0.14 | -1.02
OR6T1 | no change (active) | CA2 (caspase activation) | -0.52 | 5.46
LOC400576 (retired record) | no change | no change | 0.77 | 1.17
KLK14 | no change | no change | -0.97 | 1.51
KLRG1 | no change | no change | 0.26 | 1.48
FOXD4L1 | no change | no change | 0.44 | 2.11
SLC39A10 | no change | no change | 0.96 | -0.04
NAT1 | no change | no change | 0.08 | -0.12
NADSYN1 | no change | no change | 0.5 | 0.81
FCRL4 | no change | no change | -1.75 | -1.27
UBP1 | no change | no change | -0.74 | 1.25
OR6V1 | no change | no change | 0.7 | 0.01
UBR7 | no change | no change | -0.48 | 0.31
OPTC | no change | no change | 0.68 | 0.02
GTF2H2 | no change | no change | -0.47 | -0.86
RTL8B | no change | no change | -1.1 | -1.04

Continued (4 carried over from the part before).
gene symbol | viability hit class | caspase hit class | viability robust z-score | caspase robust z-score
UBR7 | no change | no change | -0.48 | 0.31
OPTC | no change | no change | 0.68 | 0.02
GTF2H2 | no change | no change | -0.47 | -0.86
RTL8B | no change | no change | -1.1 | -1.04
JSRP1 | no change | no change | 0.5 | -1.01
IL18BP | no change | no change | -0.7 | -0.2
RELN | no change | no change | 0.51 | 1.29
BIN3 | no change | no change | 0.12 | -0.68
SCYL2 | no change | no change | -0.15 | -0.32
TNFRSF21 | no change | no change | 0.05 | -0.78
CNTN6 | no change | no change | 0.93 | -0.55
KSR1 | no change | no change | -1.69 | -0.24
CLTC | no change | no change | -1.17 | -0.69
TCTN1 | no change | no change | 0.16 | 1.1
CCR6 | no change | no change | -1.5 | 1
HIF1AN | no change | no change | 1.11 | 0.62
TTLL7 | no change | no change | -0.56 | -0.99
FANCB | no change | no change | 0.73 | -0.6
IDE | no change | no change | 0.64 | 2.13
NDUFV3 | no change | no change | 0.24 | -0.4
PORCN | no change | no change | 0.59 | -0.52
SOCS5 | no change | no change | -1.34 | 0.63
GNRH2 | no change | no change | 0.36 | -0.7
CCDC74A | no change | no change | 0.66 | 0.86
